Source: PubChem BioAssay AID220 (DTP/NCI, 2004)
The list does not hold the whole screen: it is rich in T/C values a quarter to a half above the control, in often repeated tests (any T/C) and in doses without a T/C. Further doses and runs are listed elsewhere. T/C is the treated group as % of the vehicle group. Schedules are NCI's codes, taken here to give the interval after Q, in days (D) or hours (H), and the number of doses after X. Some T/C values carry the count of animals alive at the toxicity check (mostly the fifth day); without a count, all were alive then. Some doses have a count of surviving animals in place of a T/C: the source holds a T/C of zero for them, seemingly a mark for toxic or unscored doses. Survivors were counted at the toxicity check, usually on the fifth day, unless a day is given; later deaths do not show. Some doses were run more than once; the values are given in rising order.

Test system: CD8F1 mice, subcutaneous mammary adenocarcinoma, T/C%
Assay: NCI In Vivo Anticancer Drug Screen. Data for tumor model Mammary Adenocarcinoma CD8F1 (subcutaneous) in CD8F1
Conditions: higher T/C = larger tumour
Summary of the method: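 Antitumor activity is assessed in transplantable-tumor mice by comparing the treated group with a vehicle-treated control group. Survival or tumor size serves as the measure, reported as T divided by C.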

[1] = T/C endpoint: median tumor weight change, dose: 1000.0 mg/kg/injection, schedule: Q01DX001 (ip), vehicle: saline with Tween-80
[2] = T/C endpoint: median tumor weight (est.), dose: 100.0 mg/kg/injection, schedule: Q07DX005 (ip), vehicle: suspension in saline
[3] = T/C endpoint: median tumor weight (est.), dose: 200.0 mg/kg/injection, schedule: Q07DX005 (ip), vehicle: suspension in saline

## O=C(O)CCCc1ccc(N(CCCl)CCCl)cc1
T/C endpoint: median tumor weight (est.), dose: 2.0 mg/kg/injection, schedule: Q07DX005 (ip), vehicle: saline with Tween-80, evaluated on day 30
  T/C: 127 % of control
T/C endpoint: median tumor weight (est.), dose: 64.0 mg/kg/injection, schedule: Q07DX005 (ip), vehicle: saline with Tween-80
  survivor count: 6 of 10
T/C endpoint: median tumor weight (est.), dose: 64.0 mg/kg/injection, schedule: Q07DX005 (ip), vehicle: saline
  survivor count: 6 of 10
T/C endpoint: median tumor weight change, dose: 128.0 mg/kg/injection, schedule: Q01DX001 (ip), vehicle: saline with Tween-80
  survivor count: 1 of 10 on day 27
T/C endpoint: median tumor weight change, dose: 256.0 mg/kg/injection, schedule: Q01DX001 (ip), vehicle: saline with Tween-80
  survivor count: 0 of 10 on day 27

## CC1(C)OC1CS(=O)c1ccccc1 (stereo not drawn)
[1]
  survivor count: 1 of 10 on day 43 and 2 of 10 on day 27
T/C endpoint: median tumor weight change, dose: 2000.0 mg/kg/injection, schedule: Q01DX001 (ip), vehicle: saline with Tween-80
  survivor count: 0 of 10 on day 27 and 0 of 10 on day 43

## C=C(OP(=O)(OC)OC)Sc1ccccc1C
T/C endpoint: median tumor weight change, dose: 3.0 mg/kg/injection, schedule: Q01DX001 (ip), vehicle: Klucel (hydroxypropylcellulose) (HPC)
  survivor count: 1 of 10 on day 32
T/C endpoint: median tumor weight change, dose: 6.0 mg/kg/injection, schedule: Q01DX001 (ip), vehicle: Klucel (hydroxypropylcellulose) (HPC)
  survivor count: 0 of 10 on day 32

## CNc1nc2c(N)ncnc2n1C1OC(CO)C(O)C1O (stereo not drawn)
[2]
  survivor count: 2 of 10 on day 30
[3]
  survivor count: 0 of 10 on day 30 and 5 of 10 on day 30
T/C endpoint: median tumor weight (est.), dose: 400.0 mg/kg/injection, schedule: Q07DX005 (ip), vehicle: suspension in saline
  survivor count: 1 of 10 on day 30

## CC1C=NNC1=O (stereo not drawn)
T/C endpoint: median tumor weight (est.), dose: 800.0 mg/kg/injection, schedule: Q07DX005 (ip), vehicle: Klucel (hydroxypropylcellulose) (HPC), evaluated on day 30
  T/C: 131 % of control

## CCN(CC)CCNc1ccc(CO)c2sc3ccccc3c(=O)c12
T/C endpoint: median tumor weight (est.), dose: 6.25 mg/kg/injection, schedule: Q07DX005 (ip), vehicle: clinical formulation, evaluated on day 30
  T/C: 125 % of control
T/C endpoint: median tumor weight (est.), dose: 200.0 mg/kg/injection, schedule: Q07DX005 (ip), vehicle: clinical formulation
  survivor count: 1 of 10

## [I][Hg][CH2]C1COC([CH2][Hg][I])CO1 (stereo not drawn)
[2]
  survivor count: 4 of 10 on day 30
[3]
  survivor count: 2 of 10 on day 30

## O=C(Nc1cccc(Cl)c1)ON1C(=O)C2C(C1=O)C1(Cl)C(Cl)C(Cl)C2(Cl)C1(Cl)Cl (stereo not drawn)
T/C endpoint: median tumor weight change, dose: 500.0 mg/kg/injection, schedule: Q01DX001 (ip), vehicle: saline with Tween-80
  survivor count: 6 of 10 on day 32
[1]
  survivor count: 0 of 10 on day 32

## CN=C(N)N/N=C(\C)c1ccc2c(c1)Cc1cc(/C(C)=N/NC(N)=NC)ccc1-2
T/C endpoint: median tumor weight change, dose: 3.75 mg/kg/injection, schedule: Q01DX001 (ip), vehicle: saline with Tween-80, evaluated on day 30
  T/C: 138 % of control
T/C endpoint: median tumor weight change, dose: 30.0 mg/kg/injection, schedule: Q01DX001 (ip), vehicle: saline with Tween-80
  survivor count: 2 of 10 on day 30
T/C endpoint: median tumor weight change, dose: 60.0 mg/kg/injection, schedule: Q01DX001 (ip), vehicle: saline with Tween-80
  survivor count: 0 of 10 on day 30

## Nc1ccc(C(OC(=O)c2cc3ccccc3c(Cc3c(O)c(C(=O)OC(c4ccc(N)cc4)(c4ccc(N)cc4)c4ccc(N)cc4)cc4ccccc34)c2O)(c2ccc(N)cc2)c2ccc(N)cc2)cc1
T/C endpoint: median tumor weight change, dose: 12.5 mg/kg/injection, schedule: Q01DX001 (ip), vehicle: saline with Tween-80, evaluated on day 31
  T/C: 126 % of control [9 of 10 alive on day 31]
T/C endpoint: median tumor weight change, dose: 25.0 mg/kg/injection, schedule: Q01DX001 (ip), vehicle: saline with Tween-80, evaluated on day 31
  T/C: 135 % of control [9 of 10 alive on day 31]
T/C endpoint: median tumor weight change, dose: 31.25 mg/kg/injection, schedule: Q01DX001 (ip), vehicle: saline with Tween-80, evaluated on day 28
  T/C: 137 % of control
T/C endpoint: median tumor weight change, dose: 125.0 mg/kg/injection, schedule: Q01DX001 (ip), vehicle: saline with Tween-80
  survivor count: 1 of 10 on day 28
T/C endpoint: median tumor weight change, dose: 250.0 mg/kg/injection, schedule: Q01DX001 (ip), vehicle: saline with Tween-80
  survivor count: 2 of 10 on day 28

## N=c1ccn2c(n1)OC1C(O)C(CO)OC12 (stereo not drawn)
T/C endpoint: median tumor weight (est.), dose: 50.0 mg/kg/injection, schedule: Q07DX005 (ip), vehicle: suspension in saline, evaluated on day 30
  T/C: 137 % of control
